This note sets out measurements from PMC4367244.

No constants are given. Whether binding was seen depends on the method and setting. In cells and extracts the contact can be indirect.

For this experiment, the target named is nonphosphorylated ATM (ataxia-telangiectasia mutated) (human (endogenous in human lung cancer cells)). The experiment can be described thus: pull-down; solution binding assay: EphA5 constructs incubated with anti-pATM, anti-ATM or control IgG-coupled magnetic beads in 500 ul binding buffer (20 mM HEPES pH 6.8, 150 mM KOAc, 2 mM Mg(OAc)2, 2 mM DTT, 0.1% Tween 20) overnight at 4 °C; bound and unbound fractions immunoblotted; only the binder purified. A general note: In western blotting, separated proteins are transferred to a membrane and probed.

B1: EphA5 complete cytoplasmic domain (residues 595–1,037) (domain or fragment, UniProt P54756 595-1037)
chain: SGSCCECGCGRASSLCAVAHPSLIWRCGYSKAKQDPEEEKMHFHNGHIKLPGVRTYIDPHTYEDPNQAVHEFAKEIEASCITIERVIGAGEFGEVCSGRLKLPGKRELPVAIKTLKVGYTEKQRRDFLGEASIMGQFDHPNIIHLEGVVTKSKPVMIVTEYMENGSLDTFLKKNDGQFTVIQLVGMLRGISAGMKYLSDMGYVHRDLAARNILINSNLVCKVSDFGLSRVLEDDPEAAYTTRGGKIPIRWTAPEAIAFRKFTSASDVWSYGIVMWEVVSYGERPYWEMTNQDVIKAVEEGYRLPSPMDCPAALYQLMLDCWQKERNSRPKFDEIVNMLDKLIRNPSSLKTLVNASCRVSNLLAEHSPLGSGAYRSVGEWLEAIKMGRYTEIFMENGYSSMDAVAQVTLEDLRRLGVTLVGHQKKIMNSLQEMKVQLVNGMVPL
For the molecule B1, the binding result is recorded as “no binding”.

B2: EphA5 kinase domain (residues 655–956) (domain or fragment, UniProt P54756 655-956)
chain: TYEDPNQAVHEFAKEIEASCITIERVIGAGEFGEVCSGRLKLPGKRELPVAIKTLKVGYTEKQRRDFLGEASIMGQFDHPNIIHLEGVVTKSKPVMIVTEYMENGSLDTFLKKNDGQFTVIQLVGMLRGISAGMKYLSDMGYVHRDLAARNILINSNLVCKVSDFGLSRVLEDDPEAAYTTRGGKIPIRWTAPEAIAFRKFTSASDVWSYGIVMWEVVSYGERPYWEMTNQDVIKAVEEGYRLPSPMDCPAALYQLMLDCWQKERNSRPKFDEIVNMLDKLIRNPSSLKTLVNASCRVSNLL
For the molecule B2, the binding result is “no binding”.
